The target in assay [1] is T1, RpoE (sigma E), extracytoplasmic function sigma factor (Escherichia coli) (UniProt P0AGB6).
T1 sequence: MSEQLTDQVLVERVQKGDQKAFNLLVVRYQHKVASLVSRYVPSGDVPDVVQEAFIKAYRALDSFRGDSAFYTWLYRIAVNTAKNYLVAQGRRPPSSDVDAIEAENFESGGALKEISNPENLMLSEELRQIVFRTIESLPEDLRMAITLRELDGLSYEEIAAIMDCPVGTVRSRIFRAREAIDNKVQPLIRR
Put plainly: two-hybrid; bacterial adenylate cyclase two-hybrid (BACTH) in E. coli BTH101; T18-NsrR + T25-RpoE and T18-RpoE + T25-NsrR; quantitative β-galactosidase assay on parallel cultures, compared with vector-only controls.

Assay [2] has as its target T1, RpoE (sigma E), extracytoplasmic function sigma factor (Escherichia coli). As to the kind of experiment: two-hybrid; bacterial adenylate cyclase two-hybrid (BACTH) in E. coli BTH101; T18 and T25 fusions in both orientations; cultures with 100 uM IPTG spotted on MacConkey maltose agar, 30 °C, 24 to 48 h; colony colour.

Results are given in words; binding and its absence hold for the method and conditions named. Some entries that bind do so weakly or less than the wild type.

B1: NsrR, nitric-oxide-sensing transcriptional repressor (protein, UniProt P0AF63 1-141)
chain: MQLTSFTDYGLRALIYMASLPEGRMTSISEVTDVYGVSRNHMVKIINQLSRAGYVTAVRGKNGGIRLGKPASAIRIGDVVRELEPLSLVNCSSEFCHITPACRLKQALSKAVQSFLTELDNYTLADLVEENQPLYKLLLVE
With B1, the binding result in assay [1] and in assay [2] was “binds” throughout.

The record behind these values is article PMC12249550.
